Record: PubChem BioAssay AID504793 (Drosophila RNAi Screening Center, 2011)
In all, the deposit lists about 23,000 reagents; below is an unselected part of those with a known target gene and a result. In the full data, 62 (0.27%) are marked active. 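Calls come from follow-up tests whose scores are not deposited, so confirmed genes may have low counts here; counts are not normalised per plate.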 The raw values are shown without normalisation. The numbers tell different reagents against one gene apart. A plus sign joins genes that one reagent is predicted to hit.

Aim: 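Knock-downs allowing continued mitosis even though DNA is damaged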 (primary screen)
Cell system: Drosophila S2R+ cells
Reagents: long dsRNA against Drosophila genes, about 0.25 µg dsRNA per well
Duration: 4 days of dsRNA, then 4 hours of drug before read-out
Challenge: doxorubicin 0.5 µM for 4 hours to cause double-strand breaks, in cells also given a low, harmless dose of dsRNA against nbs to sensitise the assay
Detection: 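Per-well count of mitotic cells stained for phospho-histone H3 after doxorubicin exposure, used as mitotic index; counts are raw and not normalised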
Scale: mitotic cells: higher = more cells in mitosis, weaker G2 arrest
Call rule: 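Genes are called active only when high mitotic counts were reproduced with independent dsRNAs and mitosis was checked for delay without damage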
Calls: active = confirmed in follow-up tests; inactive = not confirmed

| target gene | dsRNA no. | mitotic cells, replicate 1 | activity call |
| --- | --- | --- | --- |
| pns | 1 | 8 | inactive |
| sima | 1 | 6 | inactive |
| sima | 2 | 2 | inactive |
| Su(Tpl) | 1 | 7 | inactive |
| Su(Tpl) | 2 | 1 | inactive |
| lov | 1 | 3 | inactive |
| lov | 2 | 15 | inactive |
| lov | 3 | 8 | inactive |
| Gip | 1 | 8 | inactive |
| DptB | 1 | 2 | inactive |
| mRpS26 | 1 | 6 | inactive |
| mRpS26 | 2 | 8 | inactive |
| nau | 1 | 12 | inactive |
| CG10359 | 1 | 3 | inactive |
| CG4267 | 1 | 7 | inactive |
| CG4267 | 2 | 6 | inactive |
| CG4575 (retired record) | 1 | 11 | inactive |
| CG33061 | 1 | 3 | inactive |
| CG33061 | 2 | 10 | inactive |
| CG42561 | 1 | 8 | inactive |
| loqs | 1 | 4 | inactive |
| CG42327 | 1 | – | inactive |
| CG42327 | 2 | 5 | inactive |
| CG42327 | 3 | 4 | inactive |
| CG42327 | 4 | 1 | inactive |
| CG42327 | 5 | 6 | inactive |
| CG31997 | 1 | 5 | inactive |
| B4 | 1 | 6 | inactive |
| B4 | 2 | 7 | inactive |
| kat80 | 1 | 11 | inactive |
| kat80 | 2 | 14 | inactive |
| Rpp20 + CG33932 | 1 | 5 | inactive |
| CG2964 | 1 | 4 | inactive |
| CG2111 | 1 | 11 | inactive |
| CG2111 | 2 | 3 | inactive |
| Mlf | 1 | 5 | inactive |
| Mlf | 2 | 6 | inactive |
| Tfb5 + CG31917 | 1 | 9 | inactive |
| bwa | 1 | 9 | inactive |
| bwa | 2 | 4 | inactive |
| ktub | 1 | 9 | inactive |
| AttB | 1 | 5 | inactive |
| AttB | 2 | 6 | inactive |
| Tim17b2 | 1 | 5 | inactive |
| Tim17b2 | 2 | 3 | inactive |
